The source of these data is PMC12561426.

In the assay the target is NRF2^DBD (human) (UniProt Q16236). As to the kind of experiment: cross-linking; glutaraldehyde by hanging-drop vapour diffusion, 5-7 uM protein, 15 min (sMafG^DBD) or 45 min (BACH1^DBD), stopped with 250 mM ammonium sulfate, SDS-PAGE with Coomassie; without DNA; both purified.

Results are given in words; binding and its absence hold for the method and conditions named.

B1: NRF2^DBD (domain or fragment, UniProt Q16236 451-567)
chain: EAHLTRDELRAKALHIPFPVEKIINLPVVDFNEMMSKEQFNEAQLALIRDIRRRGKNKVAAQNCRKRKLENIVELEQDLDHLKDEKEKLLKEKGENDKSLHLLKKQLSTLYLEVFSM
For B1, the binding entry is given as “no binding”.
